Only a part is listed here, and it is no random draw. The data scatter; read single values as rough.
compound: COC(=O)/C=C/c1ccccc1 [methyl cinnamate]; experiment: log2 ratio of iodoacetamide-alkyne labeling of the cysteine site, DMSO over compound (competition); higher = stronger covalent engagement of the cysteine by the compound, active = 1 or more; settings: 500 µM; treatment time 1 h; system: HEK293T cell lysate
In short: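 After 1 h at ambient temperature with vehicle or electrophile (500 µM), HEK293T lysate (2 mg/mL) was labelled for 1 h with iodoacetamide alkyne and clicked to sCIP-TMT reagents. Pooled samples were trypsin-digested overnight at 37 °C, streptavidin-enriched, acid-eluted and analysed by Orbitrap Eclipse LC-MS/MS with FAIMS, then quantified in FragPipe over three replicates with duplicate channels. A cysteine's log2 competition ratio is its mean control-channel over mean compound-channel reporter intensity. Cysteines quantified in only one replicate were not included.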

Sequences of proteins named here, by UniProt entry; tags and fusion partners are left off. A change or cut given only in a name is not applied to a line headed by its entry.
UniProt Q13151: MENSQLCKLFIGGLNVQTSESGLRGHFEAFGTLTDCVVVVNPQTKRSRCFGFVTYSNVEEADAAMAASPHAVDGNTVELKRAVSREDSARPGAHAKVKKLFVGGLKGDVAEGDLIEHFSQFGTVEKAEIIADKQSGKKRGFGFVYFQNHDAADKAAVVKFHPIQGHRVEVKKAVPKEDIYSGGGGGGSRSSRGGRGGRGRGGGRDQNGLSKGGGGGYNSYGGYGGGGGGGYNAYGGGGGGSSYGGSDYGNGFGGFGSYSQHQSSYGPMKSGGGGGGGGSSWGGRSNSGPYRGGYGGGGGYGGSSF
UniProt Q13045: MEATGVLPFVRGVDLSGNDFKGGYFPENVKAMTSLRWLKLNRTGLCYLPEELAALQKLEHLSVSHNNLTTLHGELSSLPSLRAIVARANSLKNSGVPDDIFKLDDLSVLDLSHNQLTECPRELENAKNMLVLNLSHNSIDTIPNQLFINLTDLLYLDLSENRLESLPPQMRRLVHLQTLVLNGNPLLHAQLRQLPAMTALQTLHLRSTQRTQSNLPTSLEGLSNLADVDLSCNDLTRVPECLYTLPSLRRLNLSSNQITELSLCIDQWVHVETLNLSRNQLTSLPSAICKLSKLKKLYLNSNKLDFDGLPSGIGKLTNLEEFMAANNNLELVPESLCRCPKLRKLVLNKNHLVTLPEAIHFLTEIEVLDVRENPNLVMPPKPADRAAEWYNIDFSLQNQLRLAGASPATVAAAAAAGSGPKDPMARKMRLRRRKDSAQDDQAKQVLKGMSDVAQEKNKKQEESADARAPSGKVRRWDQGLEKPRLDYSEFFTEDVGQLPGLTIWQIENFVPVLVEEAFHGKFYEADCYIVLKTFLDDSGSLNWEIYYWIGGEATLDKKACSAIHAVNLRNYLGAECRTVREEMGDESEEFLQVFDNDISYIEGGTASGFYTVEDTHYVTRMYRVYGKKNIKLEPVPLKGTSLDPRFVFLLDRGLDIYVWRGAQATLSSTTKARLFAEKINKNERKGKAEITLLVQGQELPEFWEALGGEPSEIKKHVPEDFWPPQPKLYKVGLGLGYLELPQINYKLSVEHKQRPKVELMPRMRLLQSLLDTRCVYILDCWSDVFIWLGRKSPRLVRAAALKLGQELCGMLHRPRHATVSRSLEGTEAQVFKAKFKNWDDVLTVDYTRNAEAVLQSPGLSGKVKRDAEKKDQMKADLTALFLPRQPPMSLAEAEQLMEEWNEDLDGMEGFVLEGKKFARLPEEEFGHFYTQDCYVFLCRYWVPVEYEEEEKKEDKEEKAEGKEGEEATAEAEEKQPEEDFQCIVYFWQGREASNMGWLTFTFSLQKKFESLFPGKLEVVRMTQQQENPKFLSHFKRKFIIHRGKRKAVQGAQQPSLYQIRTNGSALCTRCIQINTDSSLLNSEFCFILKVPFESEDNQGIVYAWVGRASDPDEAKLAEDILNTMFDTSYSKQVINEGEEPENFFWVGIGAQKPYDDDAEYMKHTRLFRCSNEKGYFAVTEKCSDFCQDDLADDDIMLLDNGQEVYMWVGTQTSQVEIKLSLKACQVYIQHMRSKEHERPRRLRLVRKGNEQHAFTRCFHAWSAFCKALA
UniProt Q12905: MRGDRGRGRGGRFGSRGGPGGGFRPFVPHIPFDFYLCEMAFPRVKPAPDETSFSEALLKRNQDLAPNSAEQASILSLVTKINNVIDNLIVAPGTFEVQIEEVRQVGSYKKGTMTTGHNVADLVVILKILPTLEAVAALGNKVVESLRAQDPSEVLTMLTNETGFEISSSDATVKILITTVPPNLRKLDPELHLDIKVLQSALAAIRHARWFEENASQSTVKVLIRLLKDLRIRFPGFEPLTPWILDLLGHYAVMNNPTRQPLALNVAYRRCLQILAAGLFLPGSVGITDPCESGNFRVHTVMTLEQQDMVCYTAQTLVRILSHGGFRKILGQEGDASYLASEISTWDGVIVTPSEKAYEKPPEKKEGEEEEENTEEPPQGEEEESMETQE
UniProt Q12996: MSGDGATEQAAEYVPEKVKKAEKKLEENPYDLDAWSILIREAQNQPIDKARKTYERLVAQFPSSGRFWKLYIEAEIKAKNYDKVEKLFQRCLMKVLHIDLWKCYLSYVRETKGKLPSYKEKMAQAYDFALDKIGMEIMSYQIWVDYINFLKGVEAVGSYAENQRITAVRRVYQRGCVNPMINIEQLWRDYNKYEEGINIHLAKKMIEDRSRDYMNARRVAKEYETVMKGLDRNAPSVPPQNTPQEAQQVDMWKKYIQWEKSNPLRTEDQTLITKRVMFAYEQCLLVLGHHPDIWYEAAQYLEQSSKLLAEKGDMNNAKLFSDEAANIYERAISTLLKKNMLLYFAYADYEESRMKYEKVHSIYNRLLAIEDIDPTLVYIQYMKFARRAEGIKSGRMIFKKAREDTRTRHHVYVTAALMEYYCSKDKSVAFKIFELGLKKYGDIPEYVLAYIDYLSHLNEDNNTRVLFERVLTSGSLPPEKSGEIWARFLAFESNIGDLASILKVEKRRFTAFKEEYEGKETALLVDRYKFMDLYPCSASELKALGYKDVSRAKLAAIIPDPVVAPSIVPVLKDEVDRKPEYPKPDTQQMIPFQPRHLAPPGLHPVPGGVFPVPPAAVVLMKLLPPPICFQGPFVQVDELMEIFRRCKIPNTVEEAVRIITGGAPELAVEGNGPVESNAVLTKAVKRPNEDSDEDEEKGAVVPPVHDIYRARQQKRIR
UniProt Q13325: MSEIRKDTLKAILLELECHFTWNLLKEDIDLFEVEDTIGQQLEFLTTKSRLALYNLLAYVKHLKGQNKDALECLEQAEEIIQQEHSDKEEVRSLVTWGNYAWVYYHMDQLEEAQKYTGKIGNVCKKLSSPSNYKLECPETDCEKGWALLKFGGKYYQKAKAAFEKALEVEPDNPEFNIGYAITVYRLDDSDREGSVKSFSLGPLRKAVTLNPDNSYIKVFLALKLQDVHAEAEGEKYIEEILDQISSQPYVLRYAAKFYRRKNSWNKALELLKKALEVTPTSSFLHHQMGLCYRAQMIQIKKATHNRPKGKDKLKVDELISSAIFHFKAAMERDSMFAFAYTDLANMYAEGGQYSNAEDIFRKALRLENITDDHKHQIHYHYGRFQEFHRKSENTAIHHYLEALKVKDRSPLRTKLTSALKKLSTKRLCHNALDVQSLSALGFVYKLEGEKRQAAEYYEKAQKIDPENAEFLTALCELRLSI
UniProt Q09161: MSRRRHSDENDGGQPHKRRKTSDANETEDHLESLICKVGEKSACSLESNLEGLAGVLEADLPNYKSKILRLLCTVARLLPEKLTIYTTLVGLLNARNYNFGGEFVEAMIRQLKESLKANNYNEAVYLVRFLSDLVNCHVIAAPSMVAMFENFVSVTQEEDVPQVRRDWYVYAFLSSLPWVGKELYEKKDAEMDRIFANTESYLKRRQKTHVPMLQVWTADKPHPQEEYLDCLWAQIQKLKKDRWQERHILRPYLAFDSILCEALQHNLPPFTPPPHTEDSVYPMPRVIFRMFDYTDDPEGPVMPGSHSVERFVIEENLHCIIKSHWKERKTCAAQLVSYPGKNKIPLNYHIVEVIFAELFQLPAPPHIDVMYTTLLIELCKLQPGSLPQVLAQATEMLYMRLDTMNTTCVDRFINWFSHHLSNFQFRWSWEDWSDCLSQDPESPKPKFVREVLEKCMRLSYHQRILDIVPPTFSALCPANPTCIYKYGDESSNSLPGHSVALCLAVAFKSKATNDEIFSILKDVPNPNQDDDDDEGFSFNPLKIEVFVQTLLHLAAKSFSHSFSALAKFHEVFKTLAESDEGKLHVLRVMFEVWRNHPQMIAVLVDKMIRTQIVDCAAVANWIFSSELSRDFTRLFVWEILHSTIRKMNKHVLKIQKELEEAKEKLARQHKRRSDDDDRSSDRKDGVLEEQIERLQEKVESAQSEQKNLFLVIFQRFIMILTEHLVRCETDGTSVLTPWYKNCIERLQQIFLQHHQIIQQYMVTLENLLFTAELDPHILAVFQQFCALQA
UniProt Q12874: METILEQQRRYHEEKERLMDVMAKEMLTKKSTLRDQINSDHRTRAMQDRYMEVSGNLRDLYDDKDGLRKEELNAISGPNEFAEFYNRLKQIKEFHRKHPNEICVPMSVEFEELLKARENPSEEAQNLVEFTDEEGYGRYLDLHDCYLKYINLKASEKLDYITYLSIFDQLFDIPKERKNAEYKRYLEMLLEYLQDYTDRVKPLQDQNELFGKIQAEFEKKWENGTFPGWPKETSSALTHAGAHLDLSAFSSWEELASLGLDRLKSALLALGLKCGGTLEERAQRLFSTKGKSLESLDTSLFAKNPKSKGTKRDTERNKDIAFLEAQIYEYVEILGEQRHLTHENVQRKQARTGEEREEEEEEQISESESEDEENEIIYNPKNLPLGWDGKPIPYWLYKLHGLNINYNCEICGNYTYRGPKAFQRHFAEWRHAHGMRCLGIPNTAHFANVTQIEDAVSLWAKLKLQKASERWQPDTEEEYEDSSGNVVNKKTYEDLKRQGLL
UniProt Q08211, whole entry, looked up: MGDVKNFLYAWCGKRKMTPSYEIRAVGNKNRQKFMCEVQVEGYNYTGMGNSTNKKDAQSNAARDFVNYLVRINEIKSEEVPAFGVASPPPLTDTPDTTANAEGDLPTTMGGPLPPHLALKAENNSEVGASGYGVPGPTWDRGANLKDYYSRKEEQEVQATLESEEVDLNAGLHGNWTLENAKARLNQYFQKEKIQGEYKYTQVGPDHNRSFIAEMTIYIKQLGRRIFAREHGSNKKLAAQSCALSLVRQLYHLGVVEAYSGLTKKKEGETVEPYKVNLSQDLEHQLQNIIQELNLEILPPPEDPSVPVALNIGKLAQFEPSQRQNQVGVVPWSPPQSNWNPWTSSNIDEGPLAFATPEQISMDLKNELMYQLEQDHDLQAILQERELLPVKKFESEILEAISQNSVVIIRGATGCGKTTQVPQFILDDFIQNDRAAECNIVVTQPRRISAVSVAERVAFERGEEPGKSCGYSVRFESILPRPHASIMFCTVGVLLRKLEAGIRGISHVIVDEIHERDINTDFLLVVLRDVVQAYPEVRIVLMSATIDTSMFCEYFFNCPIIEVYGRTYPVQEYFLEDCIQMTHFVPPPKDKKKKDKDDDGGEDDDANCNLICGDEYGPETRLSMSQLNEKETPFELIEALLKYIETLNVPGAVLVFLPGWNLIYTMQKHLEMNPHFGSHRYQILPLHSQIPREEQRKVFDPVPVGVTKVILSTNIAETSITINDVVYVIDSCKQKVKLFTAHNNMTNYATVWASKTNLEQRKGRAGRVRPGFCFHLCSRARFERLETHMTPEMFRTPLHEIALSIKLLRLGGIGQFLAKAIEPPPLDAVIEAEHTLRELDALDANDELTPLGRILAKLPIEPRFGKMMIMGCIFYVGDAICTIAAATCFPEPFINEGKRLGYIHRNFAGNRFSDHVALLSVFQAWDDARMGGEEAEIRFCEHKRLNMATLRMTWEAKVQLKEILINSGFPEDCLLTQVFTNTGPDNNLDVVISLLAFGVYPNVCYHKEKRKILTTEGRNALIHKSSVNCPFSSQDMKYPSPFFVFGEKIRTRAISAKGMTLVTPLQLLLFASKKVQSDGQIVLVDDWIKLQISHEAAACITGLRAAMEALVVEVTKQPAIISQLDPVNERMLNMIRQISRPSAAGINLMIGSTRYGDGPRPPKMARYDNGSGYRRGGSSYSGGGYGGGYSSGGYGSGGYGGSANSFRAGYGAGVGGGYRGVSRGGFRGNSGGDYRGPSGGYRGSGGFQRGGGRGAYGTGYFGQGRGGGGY

Target | log2 ratio of iodoacetamide-alkyne labeling
AKAP13 C1414 (UniProt Q12802) | inactive: 0.361
HNRNPA0 C7 (UniProt Q13151) | inactive: 0.231
PTPN11 C573 (UniProt Q06124) | inactive: 0.366
FLII C1265 (UniProt Q13045) | inactive: 0.108
NUP160 C1003 (UniProt Q12769) | inactive: -0.0602
UniProt Q12905_C271 | inactive: 0.122
CSTF3 C628 (UniProt Q12996) | inactive: 0.167
IFIT5 C476 (UniProt Q13325) | inactive: 0.142
NCBP1 C503 (UniProt Q09161) | inactive: 0.231
PTPN13 C937 (UniProt Q12923) | inactive: 0.338
SF3A3 C437 (UniProt Q12874) | inactive: -0.0887
PTPN11 C259 (UniProt Q06124) | inactive: -0.029
DHX9 C438 (UniProt Q08211) | inactive: 0.0198
AKAP13 C683 (UniProt Q12802) | inactive: 0.273
GTF3C1 C1188 (UniProt Q12789) | inactive: 0.0348

2 entries drawn at random from the list so far, as already listed:
Target | log2 ratio of iodoacetamide-alkyne labeling
GTF3C1 C1188 (UniProt Q12789) | inactive: 0.0348
CSTF3 C628 (UniProt Q12996) | inactive: 0.167
